# Laboratory results as given in PubChem BioAssay AID587 (National Center for Advancing Translational Sciences (NCATS), 2007).
# Out of some 59,000 compounds screened, about 35 (0.06%) were called active. The inconclusive results got no clear call from the source; some entries with a clear call stand among them for comparison. Rule as the data show it: active = max dye-equivalent concentration above about 10 nM; inconclusive = between about 1.1 nM and that limit; inactive = weaker than that.
# Test: qHTS Assay for Spectroscopic Profiling in Texas Red Spectral Region
# Details: Compound fluorescence, Texas Red channel, 547/618 nm; stronger effect = higher value
# Method in brief: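 Compound fluorescence was read after 15 min at room temperature in 100 mM Tris, pH 8.0, using 547 nm excitation and 618 nm emission across a concentration series. It was expressed as Texas Red dye-equivalent concentration from an on-plate standard curve.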
row,Compound,max dye-equivalent concentration
1,Cc1cccc(N(C)S(=O)(=O)c2ccc3[nH]cc(C(=O)N4CCOCC4)c(=O)c3c2)c1,inconclusive: 1.6 nM
2,O=S(=O)(Cc1ccccc1)N1CCCC(c2nc(-c3ccc(F)cc3)no2)C1 (stereo unspecified),inconclusive: 2.8 nM
3,C(=N\n1cnnc1)/c1ccc2ncccc2c1,inconclusive: 1.3 nM
4,Cn1c(=O)[nH]c2cc(Cl)cnc21,inactive
5,COc1cc(C)cc(OC)c1/C=C\C(=O)O,inactive
6,O=C(c1ccncc1)N1CCC[C@@]2(CCN(C(c3ccccc3)c3ccccc3)C2)C1,inactive
7,CC(C)(C)c1cc(Br)c(O)c(CN(Cc2cc(C(C)(C)C)cc(Br)c2O)C2CCCCC2)c1,inactive
8,COc1ccc(CC(NC(C)=O)C(=O)NC2CCN(c3nnnn3-c3ccccc3)CC2)cc1 (stereo unspecified),inconclusive: 2.4 nM
9,COC(=O)c1ccccc1NC(=O)N1CCN(C/C=C/c2ccccc2)CC1,inconclusive: 1.5 nM
10,COc1ccccc1CNc1ccnc(-c2ccc(N(C)C)cc2)n1,inactive
11,COc1cc2cc(CN(C(=O)Nc3ccccc3)C3CCCC3)c(=O)[nH]c2cc1OC,inconclusive: 1.2 nM
12,CC1CN(Cc2nc3c(c(=O)n(C)c(=O)n3C)n2CCCc2ccccc2)CC(C)O1 (stereo unspecified),inconclusive: 1.4 nM
13,O=S1(=O)N=C(Nc2ccc(N3CCOCC3)cc2)c2ccccc21,inconclusive: 1.2 nM
14,CCOC(=O)c1c(C)n(CCO)c2ccc(O)cc12,inconclusive: 1.1 nM
15,CCc1cc(=O)oc2cc(C)cc(OC(C)C(=O)O)c12 (stereo unspecified),inconclusive: 1.5 nM
16,CCCOc1ccc(/C=c2\sc3nc(-c4ccco4)nn3c2=O)cc1OCC,inactive
17,COc1ccc2nc(CC(C)(C)CC(=O)O)c[n+]([O-])c2c1,inconclusive: 1.4 nM
18,Cc1ccccc1OCc1nnc(SCC(=O)NCc2ccccc2)n1C,inconclusive: 2.5 nM
19,CN1/C(=C\C(=O)CN2C(=O)NC3(CCCCCC3)C2=O)C(C)(C)c2ccccc21,inconclusive: 6.7 nM
20,O=C(Cc1ccccc1)N1CCCC(c2nc(-c3cccs3)no2)C1 (stereo unspecified),inconclusive: 1.3 nM
21,COc1cc(C2C(C(=O)c3ccco3)=C(O)C(=O)N2c2cc(C)on2)cc(Br)c1O (stereo unspecified),inconclusive: 1.1 nM
22,Cc1nc2sc3c(c2c(=O)n1/N=C/c1ccco1)CCCC3,inconclusive: 1.3 nM

# As entered above:
# Value of Cc1ccccc1OCc1nnc(SCC(=O)NCc2ccccc2)n1C under max dye-equivalent concentration: inconclusive: 2.5 nM
# Value of CCc1cc(=O)oc2cc(C)cc(OC(C)C(=O)O)c12 (stereo unspecified) under max dye-equivalent concentration: inconclusive: 1.5 nM
# Value of O=S1(=O)N=C(Nc2ccc(N3CCOCC3)cc2)c2ccccc21 under max dye-equivalent concentration: inconclusive: 1.2 nM

# Next part

row,Compound,max dye-equivalent concentration
1,Cc1ccc(N2CC(C(=O)OCC(=O)C(C)(C)C)CC2=O)cc1C (stereo unspecified),inconclusive: 1.5 nM
2,CCCC(=O)Nc1nc2ccc3nc(C)sc3c2s1,inconclusive: 1.7 nM
3,Cc1ccc(C(=O)/C=C/Nc2cccc(O)c2)cc1,inconclusive: 2.1 nM
4,O=C(Nc1nc(-c2ccco2)c(-c2ccco2)s1)C1CC(=O)N(c2ccc3c(c2)OCCO3)C1 (stereo unspecified),inconclusive: 1.8 nM
5,CC(=O)c1c[nH]c2ccc(C)cc2c1=O,inactive
6,CC(C)c1c(O)nc(SCCN(C)C)[nH]c1=O,inconclusive: 1.1 nM
7,c1ccc(CN2CCC3(CC2)Nc2ccccc2CO3)cc1,inconclusive: 1.8 nM
8,O=C(CN1C(=O)COc2ccccc21)Nc1ccc2c(c1)OCCO2,inconclusive: 1.1 nM
9,O=C(NCc1cccnc1)c1c[nH]c2cc3c(cc2c1=O)OCCO3,inconclusive: 1.2 nM
10,Cc1ccc(C(=O)CCC(=O)Nc2cccnc2)cc1C,inconclusive: 1.5 nM
11,Cc1cccc(-n2nc3c(c2NC(=O)c2ccc(Br)o2)CSC3)c1C,inconclusive: 1.2 nM
12,COCCN(C(=O)Nc1ccc(OC)cc1OC)C1CCN(C(C)=O)CC1,inconclusive: 2.2 nM
13,O=S(=O)(Nc1nc2ccccc2[nH]1)c1ccccc1,inactive
14,COc1ccccc1CNc1ncnc2ccc(-c3ccc4c(c3)OCO4)cc12,inactive
15,O=C(NCCN1CCCC1)C1CC(=O)N(C2CCCCC2)C1 (stereo unspecified),inconclusive: 1.5 nM
16,COc1cccc(NC(=O)CSc2nnc(-c3cc(-c4ccccn4)nc4ccccc34)o2)c1,inconclusive: 1.2 nM
18,O=C1OC2(c3ccc(O)cc3Oc3cc(O)ccc32)c2c1c(-c1ccccc1)c(-c1ccccc1)c(-c1ccccc1)c2-c1ccccc1,inactive
19,O=C(c1ccccc1C(=O)N1CCN(c2ccccc2)CC1)N1CCN(c2ccccc2)CC1,inactive
20,Cc1nnc(SCC(=O)N2CCC(C(=O)Nc3nccs3)CC2)n1Cc1ccccc1,inconclusive: 1.4 nM
21,CCN1C(=O)C2(C(C#N)=C(N)Oc3cc(C)oc(=O)c32)c2ccccc21 (stereo unspecified),inconclusive: 1.4 nM
22,Cc1c(C2(O)C(=O)Nc3ccc(F)cc32)c(=O)n(-c2ccccc2)n1C (stereo unspecified),inconclusive: 1.5 nM

# A portion of the results above, as a working copy:
row,Compound,max dye-equivalent concentration
13,O=S(=O)(Nc1nc2ccccc2[nH]1)c1ccccc1,inactive
14,COc1ccccc1CNc1ncnc2ccc(-c3ccc4c(c3)OCO4)cc12,inactive
15,O=C(NCCN1CCCC1)C1CC(=O)N(C2CCCCC2)C1 (stereo unspecified),inconclusive: 1.5 nM

# (next part)

row,Compound,max dye-equivalent concentration
1,CCOc1ccc(N2CC(C(=O)NCc3cccc(C)c3)CC2=O)cc1 (stereo unspecified),inconclusive: 1.1 nM
2,CCCCOC(=O)CSc1nc(N)c(C#N)c(-c2ccc(OCC)cc2)c1C#N,inconclusive: 1.3 nM
3,COc1ccc(-c2nc(C#N)c(NCc3ccc(C)cc3)o2)cc1OC,inconclusive: 1.1 nM
4,CS(=O)(=O)NCc1ccc(C(=O)NCc2ccccc2)cc1,inactive
5,COc1ccc(Cn2nnnc2C(c2ccccc2Cl)N2CCN(C)CC2)cc1 (stereo unspecified),inconclusive: 1.1 nM
6,C#C[C@@]1(O)CC[C@H]2[C@H]3CCC4=Cc5oncc5C[C@]4(C)[C@@H]3CC[C@@]21C,inactive
7,CCc1ccc2oc(-c3cc(N)cc(C)c3O)nc2c1,inconclusive: 1.3 nM
8,O=C(Nc1cccc(C(=O)N2CCOCC2)c1)c1cccnc1,inconclusive: 1.1 nM
9,COc1ccc(NS(=O)(=O)c2ccc3oc(Nc4ccc5c(c4)OCCO5)nc3c2)cc1,inconclusive: 1.2 nM
10,Cc1cccc(Nc2ncccc2C(=O)O)c1C,inconclusive: 1.4 nM
11,CCN1C(=O)C2(/C(=C(\O)c3ccc4c(c3)OCCO4)C(=O)C(=O)N2CCCOC)c2ccccc21 (stereo unspecified),inconclusive: 1.1 nM
12,Cc1ccc(S(=O)(=O)NCC(=O)N(CC(=O)NC2CCCC2)c2ccc3c(c2)OCCO3)cc1,inconclusive: 1.6 nM
13,CCc1nnc(NC(=O)C2Cc3ccccc3CN2S(=O)(=O)c2cccs2)s1 (stereo unspecified),inconclusive: 1.2 nM
14,O=C(CN(c1ccccc1)S(=O)(=O)c1ccc(F)cc1)N1CCCCCC1,inconclusive: 1.3 nM
15,CCCOC(=O)C1=C(C)NC2=C(C(=O)C(C(=O)OC)C(C)C2)C1c1ccc(N(C)C)cc1 (stereo unspecified),inactive
16,Nc1ccc2oc(=O)c3ccccc3c2c1,inconclusive: 2.3 nM
17,C=C(C)c1cccc(C(C)(C)NC(=O)N2CC(C)OC(C)C2)c1 (stereo unspecified),inconclusive: 1.6 nM
18,Cc1ccc(NC2=Nc3ccccc3CS2)cc1,inconclusive: 1.5 nM
19,CC1Cn2c(CCc3ccccc3)nnc2S1 (stereo unspecified),inconclusive: 1.6 nM
20,COC(=O)CNC(=O)c1ccc2c(c1)S(=O)(=O)c1ccccc1C2=O,inactive
21,O=C(COC(=O)CCc1nc2ccccc2s1)Nc1ccc(S(=O)(=O)N2CCOCC2)cc1,inconclusive: 2.9 nM
22,N#Cc1ccccc1Sc1ccccc1C(=O)OCC(=O)N1CCN(C(=O)c2ccco2)CC1,inconclusive: 1.8 nM

row,Compound,max dye-equivalent concentration
1,CCCCn1c(C(C)NC(=O)c2cccs2)nc2ccccc21 (stereo unspecified),inconclusive: 2 nM
2,CN(C)c1ncc2nc(-c3cccs3)c(=O)n(C3CC3)c2n1,inactive
3,COc1cccc(-n2nnc3c(=O)n(CC(=O)N4CCC(Cc5ccccc5)CC4)cnc32)c1,inconclusive: 1.8 nM
4,C/C(N)=N\S(=O)(=O)c1ccc(Cl)cc1,inconclusive: 1.3 nM
5,C=CCOc1c(OC)cc(Cl)cc1C1NC(=O)NC(C)=C1C(C)=O (stereo unspecified),inconclusive: 1.7 nM
6,COCc1cc(=O)[nH]c(/N=C(\N)Nc2ccc(Oc3ccccc3)cc2)n1,inconclusive: 2.5 nM
7,COc1ccc(NC(=O)CC2SC(=NCc3ccccc3OC)NC2=O)cc1 (stereo unspecified),inactive
8,COc1cccc(-c2nnc(SCC(N)=O)n2-c2ccc(Cl)cc2)c1,inconclusive: 1.7 nM
9,CCN(Cc1ccccc1)C(c1ccncc1)c1nnnn1C(C)(C)C (stereo unspecified),inconclusive: 1.2 nM
10,Cc1cccc(C)c1OC[C@H](C)N,inconclusive: 1.6 nM
11,O=c1c2ccccc2c2ccccc2c(=O)n1Cc1ccco1,inconclusive: 1.4 nM
12,COC(=O)C1=C(C)NC(=O)NC1c1ccccc1 (stereo unspecified),inconclusive: 1.1 nM
13,CCOc1ccc(N2C(=O)CC(/C=C3/N(C)c4ccccc4C3(C)C)C2=O)cc1 (stereo unspecified),inconclusive: 1.1 nM
14,CCOc1ncccc1C(=O)OCC(=O)c1ccc[nH]1,inactive
15,O=C(CSc1ncc(C(F)(F)F)cc1Cl)N1CCN(S(=O)(=O)c2ccccc2)CC1,inconclusive: 1.1 nM
16,Cn1c(=O)n(Cc2ccccc2)c(=O)c2c1nc1n2CCCN1C1CCCCC1,inconclusive: 1.1 nM
17,CCN(C(=O)COC(=O)c1cc(C)n(-c2ccc(F)cc2)c1C)C1CCS(=O)(=O)C1 (stereo unspecified),inconclusive: 2.4 nM
18,CC(=O)Nc1ccccc1C(=O)N1CC(C)OC(C)C1 (stereo unspecified),inconclusive: 1.3 nM
19,O=C(O)c1cc(-c2ccco2)nc2ccc(Br)cc12,inconclusive: 1.1 nM
20,CC1Cc2ccccc2N1C(=O)CCNS(=O)(=O)c1cccc2nsnc12 (stereo unspecified),inconclusive: 1.3 nM
